Source: the supplement of paper PMC8426693
This is one part of the list.

Legend:
Assay in all cases: NMR binding call after quantification (hit when 2 of 3 NMR criteria are met) (binary (1 = binding, 0 = not binding)); higher = binding
Conditions in all cases: RNA concentration 10 µM; fragment concentration 200 µM; 293 K
SARS-CoV-2 3'-UTR RNA = test system: SARS-CoV-2 3'-UTR RNA
SARS-CoV-2 3_SL1 RNA = test system: SARS-CoV-2 3_SL1 RNA
SARS-CoV-2 3_SL1+2 RNA = test system: SARS-CoV-2 3_SL1+2 RNA
SARS-CoV-2 3_SL2 RNA = test system: SARS-CoV-2 3_SL2 RNA
SARS-CoV-2 3_SL3base RNA = test system: SARS-CoV-2 3_SL3base RNA
SARS-CoV-2 3_s2m RNA = test system: SARS-CoV-2 3_s2m RNA
SARS-CoV-2 5'-UTR RNA = test system: SARS-CoV-2 5'-UTR RNA
SARS-CoV-2 5_SL1 RNA = test system: SARS-CoV-2 5_SL1 RNA
SARS-CoV-2 5_SL1234 RNA = test system: SARS-CoV-2 5_SL1234 RNA
SARS-CoV-2 5_SL2+3 RNA = test system: SARS-CoV-2 5_SL2+3 RNA
SARS-CoV-2 5_SL4 RNA = test system: SARS-CoV-2 5_SL4 RNA
SARS-CoV-2 5_SL5 RNA = test system: SARS-CoV-2 5_SL5 RNA
SARS-CoV-2 5_SL5a RNA = test system: SARS-CoV-2 5_SL5a RNA
SARS-CoV-2 5_SL5b+c RNA = test system: SARS-CoV-2 5_SL5b+c RNA
SARS-CoV-2 5_SL5stem RNA = test system: SARS-CoV-2 5_SL5stem RNA
SARS-CoV-2 5_SL6 RNA = test system: SARS-CoV-2 5_SL6 RNA

Measured: NMR binding call

COc1ccc(C)cc1NC(=O)CN.Cl
0: all assays above

CCC(=O)Nc1c(C(N)=O)oc2ccccc12
0: all assays above

COc1ccc(C(=O)C2CCNCC2)cc1
0: all assays above

CC(=O)Nc1ccc(C)c2c1CCCN2
0: all assays above

CN(C)C(=O)Nc1ccc(S(N)(=O)=O)cc1
0: all assays above

O=C(O)c1ccc(OCc2ccccc2)cc1
0: all assays above

CCN1CCN(C(=O)NC2CCCCC2)CC1
0: all assays above

c1ccc(CN2CCC(n3cccc3)CC2)cc1
0: all assays above

O=C(NCc1ccc(F)cc1)Nc1ccccc1
0: all assays above

CNC(C)c1cnn(C)c1 (stereo not given)
0: all assays above

Cc1nnc(NC(=O)N2CCOCC2)s1
0: all assays above

Cc1ccc(CC(=O)Nc2nccs2)cc1
0: all assays above

c1cc(-c2noc(C3CCCCC3)n2)ccn1
0: all assays above

Cc1cccc(C(=O)N2CCC(C(N)=O)CC2)c1
0: all assays above

Cc1cccc(NC(=O)CN2CCOCC2)c1C
0: all assays above

Ordered by molar mass (ascending): four of the compounds above
CNC(C)c1cnn(C)c1 (stereo not given)
0: all assays above

c1cc(-c2noc(C3CCCCC3)n2)ccn1
0: all assays above

O=C(NCc1ccc(F)cc1)Nc1ccccc1
0: all assays above

Cc1cccc(C(=O)N2CCC(C(N)=O)CC2)c1
0: all assays above
